Data as given in PMC4193777 (PLoS ONE, 2014).
Results are given in words; binding and its absence hold for the method and conditions named. Some entries that bind do so weakly or less than the wild type.

Protein sequences, listed by entry. Tags and fused reporters are not part of them.
UniProt P25090: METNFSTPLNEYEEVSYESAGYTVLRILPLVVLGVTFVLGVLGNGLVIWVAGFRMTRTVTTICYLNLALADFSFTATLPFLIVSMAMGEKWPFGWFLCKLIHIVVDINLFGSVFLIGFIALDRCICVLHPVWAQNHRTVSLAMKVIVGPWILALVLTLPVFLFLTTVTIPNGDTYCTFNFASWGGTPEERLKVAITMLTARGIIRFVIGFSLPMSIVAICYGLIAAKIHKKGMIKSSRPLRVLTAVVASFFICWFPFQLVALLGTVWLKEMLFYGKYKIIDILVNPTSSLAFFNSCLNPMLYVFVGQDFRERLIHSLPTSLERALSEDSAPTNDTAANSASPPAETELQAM

Target: formyl peptide receptor 2 (FPR2) (human (endogenous in neutrophils)) (UniProt P25090)
Experiment: flow cytometry on cells; Cy5-WKYMVM (1 nM) incubated with human neutrophils on ice for 1 or 2 hours, without or with an excess of non-labeled WKYMVM (100 nM) or F2Pal10 (1 µM); only the binder purified

B1: F2Pal10 pepducin (peptide)
peptide: KIHKKGMIKS
modifications: N-terminal palmitoylation
For B1, the binding was “binds”.
